From publication PMC12078756 come the findings set out here.

Amino acid sequences for entries named in this document (tags omitted). A change or cut given only in a name is not applied to a line headed by its entry. Chains listed by the source or under a name are the forms on record and can include a tag or linker.
GFP-tagged IFT20 (intraflagellar transport protein 20) (Q8IY31, form named): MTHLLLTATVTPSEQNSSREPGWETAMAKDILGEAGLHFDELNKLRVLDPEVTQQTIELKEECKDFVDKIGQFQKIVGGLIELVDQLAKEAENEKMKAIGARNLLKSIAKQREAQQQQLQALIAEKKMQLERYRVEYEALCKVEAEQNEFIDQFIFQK

These are yes or no findings as the source states them, for the method shown. In cells and extracts the contact can be indirect. Here binding means that the protein was enriched with, or labelled near, the bait; the list need not be complete.

This test has as its target GFP-tagged IFT20 (intraflagellar transport protein 20) (human) (UniProt Q8IY31). Kind of test: affinity purification with mass spectrometry; HEK293T cells transfected with GFP or GFP-IFT20, lysed; GFP or GFP-IFT20 pulled down with GFP magnetic beads and analysed by mass spectrometry.

B1: IFT88 (endogenous, found by mass spectrometry) (protein, UniProt Q13099 1-824)
chain: MMQNVHLAPETDEDDLYSGYNDYNPIYDIEELENDAAFQQAVRTSHGRRPPITAKISSTAVTRPIATGYGSKTSLASSIGRPMTGAIQDGVTRPMTAVRAAGFTKAALRGSAFDPLSQSRGPASPLEAKKKDSPEEKIKQLEKEVNELVEESCIANSCGDLKLALEKAKDAGRKERVLVRQREQVTTPENINLDLTYSVLFNLASQYSVNEMYAEALNTYQVIVKNKMFSNAGILKMNMGNIYLKQRNYSKAIKFYRMALDQVPSVNKQMRIKIMQNIGVTFIQAGQYSDAINSYEHIMSMAPNLKAGYNLTICYFAIGDREKMKKAFQKLITVPLEIDEDKYISPSDDPHTNLVTEAIKNDHLRQMERERKAMAEKYIMTSAKLIAPVIETSFAAGYDWCVEVVKASQYVELANDLEINKAVTYLRQKDYNQAVEILKVLEKKDSRVKSAAATNLSALYYMGKDFAQASSYADIAVNSDRYNPAALTNKGNTVFANGDYEKAAEFYKEALRNDSSCTEALYNIGLTYEKLNRLDEALDCFLKLHAILRNSAEVLYQIANIYELMENPSQAIEWLMQVVSVIPTDPQVLSKLGELYDREGDKSQAFQYYYESYRYFPCNIEVIEWLGAYYIDTQFWEKAIQYFERASLIQPTQVKWQLMVASCFRRSGNYQKALDTYKDTHRKFPENVECLRFLVRLCTDLGLKDAQEYARKLKRLEKMKEIREQRIKSGRDGSGGSRGKREGSASGDSGQNYSASSKGERLSARLRALPGTNEPYESSSNKEIDASYVDPLGPQIERPKTAAKKRIDEDDFADEELGDDLLPE
With B1, the binding entry is listed as “binds”.
